Results on one substance are retold here after paper doi:10.1101/2020.09.28.317172.

Chains of the proteins cited; added tags and fusions are not shown. Lines headed by an entry give the natural chain unless they say otherwise; changes in a name come on top.
UniProt Q8TEW0: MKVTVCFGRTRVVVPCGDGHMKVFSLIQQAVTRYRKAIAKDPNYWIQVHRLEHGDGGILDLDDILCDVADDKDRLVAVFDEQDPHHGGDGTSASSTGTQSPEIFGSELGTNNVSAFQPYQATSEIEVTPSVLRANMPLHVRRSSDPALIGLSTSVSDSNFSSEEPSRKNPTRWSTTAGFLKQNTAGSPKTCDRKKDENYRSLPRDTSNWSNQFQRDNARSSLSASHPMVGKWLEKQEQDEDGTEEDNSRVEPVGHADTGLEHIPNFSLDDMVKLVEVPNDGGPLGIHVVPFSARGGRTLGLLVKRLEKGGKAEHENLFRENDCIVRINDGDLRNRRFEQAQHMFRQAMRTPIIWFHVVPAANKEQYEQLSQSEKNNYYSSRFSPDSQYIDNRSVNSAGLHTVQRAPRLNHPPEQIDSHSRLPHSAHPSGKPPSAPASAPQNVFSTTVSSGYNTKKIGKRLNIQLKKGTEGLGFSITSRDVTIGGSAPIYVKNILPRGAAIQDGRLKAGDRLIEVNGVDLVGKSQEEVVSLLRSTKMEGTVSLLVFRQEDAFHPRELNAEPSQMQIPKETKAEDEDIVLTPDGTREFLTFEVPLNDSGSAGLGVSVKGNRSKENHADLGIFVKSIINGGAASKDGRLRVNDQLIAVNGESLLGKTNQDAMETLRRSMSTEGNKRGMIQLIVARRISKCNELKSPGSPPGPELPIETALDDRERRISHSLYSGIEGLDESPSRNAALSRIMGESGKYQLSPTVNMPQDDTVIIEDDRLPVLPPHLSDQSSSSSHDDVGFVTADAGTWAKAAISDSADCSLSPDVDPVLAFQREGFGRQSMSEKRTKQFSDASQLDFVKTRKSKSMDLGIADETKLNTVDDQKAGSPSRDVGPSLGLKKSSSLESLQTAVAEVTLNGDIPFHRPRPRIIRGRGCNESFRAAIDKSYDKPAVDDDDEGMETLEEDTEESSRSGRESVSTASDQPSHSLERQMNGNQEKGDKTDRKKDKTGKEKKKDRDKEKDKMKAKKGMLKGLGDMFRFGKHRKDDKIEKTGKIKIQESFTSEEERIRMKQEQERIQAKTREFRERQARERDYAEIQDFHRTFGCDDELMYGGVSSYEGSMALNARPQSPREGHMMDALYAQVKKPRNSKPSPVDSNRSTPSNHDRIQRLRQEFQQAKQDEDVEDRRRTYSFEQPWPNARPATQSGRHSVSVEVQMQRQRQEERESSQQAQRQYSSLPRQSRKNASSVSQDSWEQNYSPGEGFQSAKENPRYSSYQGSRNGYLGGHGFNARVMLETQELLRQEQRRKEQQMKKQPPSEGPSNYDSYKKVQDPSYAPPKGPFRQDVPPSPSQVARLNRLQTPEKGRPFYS
UniProt A0A2R8QCI3: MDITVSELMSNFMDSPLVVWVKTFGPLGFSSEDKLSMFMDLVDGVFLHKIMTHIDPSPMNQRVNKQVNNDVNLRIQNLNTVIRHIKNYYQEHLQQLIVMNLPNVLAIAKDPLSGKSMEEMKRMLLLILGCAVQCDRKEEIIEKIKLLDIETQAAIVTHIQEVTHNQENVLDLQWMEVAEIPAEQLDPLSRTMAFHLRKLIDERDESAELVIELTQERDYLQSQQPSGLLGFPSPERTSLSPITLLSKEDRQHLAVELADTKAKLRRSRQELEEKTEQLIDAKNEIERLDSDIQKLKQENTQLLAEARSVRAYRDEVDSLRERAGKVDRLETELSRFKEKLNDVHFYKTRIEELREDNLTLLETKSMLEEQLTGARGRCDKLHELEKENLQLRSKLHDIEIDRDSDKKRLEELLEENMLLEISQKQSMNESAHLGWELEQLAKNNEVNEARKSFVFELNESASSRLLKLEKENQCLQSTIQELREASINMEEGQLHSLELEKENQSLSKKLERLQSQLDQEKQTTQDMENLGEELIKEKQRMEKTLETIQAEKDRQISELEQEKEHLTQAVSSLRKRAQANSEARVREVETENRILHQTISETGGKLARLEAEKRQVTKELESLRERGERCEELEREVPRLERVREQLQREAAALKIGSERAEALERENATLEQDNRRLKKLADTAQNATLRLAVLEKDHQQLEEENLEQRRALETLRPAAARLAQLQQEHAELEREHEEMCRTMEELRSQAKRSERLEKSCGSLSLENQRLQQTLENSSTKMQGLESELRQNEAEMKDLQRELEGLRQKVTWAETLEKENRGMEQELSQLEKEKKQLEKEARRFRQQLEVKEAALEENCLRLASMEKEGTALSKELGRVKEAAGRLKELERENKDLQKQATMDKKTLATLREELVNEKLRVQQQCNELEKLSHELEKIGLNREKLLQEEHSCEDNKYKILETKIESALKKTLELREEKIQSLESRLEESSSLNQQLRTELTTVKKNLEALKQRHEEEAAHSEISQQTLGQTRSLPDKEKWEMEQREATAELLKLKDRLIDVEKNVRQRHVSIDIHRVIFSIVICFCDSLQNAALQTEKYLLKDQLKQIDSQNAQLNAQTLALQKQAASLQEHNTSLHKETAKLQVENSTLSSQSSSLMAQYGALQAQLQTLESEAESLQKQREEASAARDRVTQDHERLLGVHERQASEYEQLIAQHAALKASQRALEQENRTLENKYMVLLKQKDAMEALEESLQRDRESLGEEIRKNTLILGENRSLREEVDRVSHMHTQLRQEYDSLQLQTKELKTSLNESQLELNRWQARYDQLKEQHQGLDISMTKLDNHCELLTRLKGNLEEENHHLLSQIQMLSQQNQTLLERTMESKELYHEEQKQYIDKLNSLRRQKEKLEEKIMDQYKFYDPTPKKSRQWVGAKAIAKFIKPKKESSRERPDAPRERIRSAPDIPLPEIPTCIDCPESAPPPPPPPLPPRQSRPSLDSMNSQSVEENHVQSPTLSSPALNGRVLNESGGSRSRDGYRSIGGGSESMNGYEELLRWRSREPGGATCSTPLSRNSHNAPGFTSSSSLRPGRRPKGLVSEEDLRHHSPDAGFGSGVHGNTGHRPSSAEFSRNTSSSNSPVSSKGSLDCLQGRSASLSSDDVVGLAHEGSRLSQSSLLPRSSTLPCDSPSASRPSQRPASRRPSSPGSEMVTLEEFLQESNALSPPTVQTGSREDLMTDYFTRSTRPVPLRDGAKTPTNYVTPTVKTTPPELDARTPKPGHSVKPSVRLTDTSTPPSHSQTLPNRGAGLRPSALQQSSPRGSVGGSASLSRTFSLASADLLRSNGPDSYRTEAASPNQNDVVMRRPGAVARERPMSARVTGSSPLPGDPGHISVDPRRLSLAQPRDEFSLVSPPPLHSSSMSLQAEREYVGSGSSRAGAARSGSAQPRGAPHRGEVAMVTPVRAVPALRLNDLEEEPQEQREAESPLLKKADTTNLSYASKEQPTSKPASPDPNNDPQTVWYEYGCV

For this experiment, the target named is GST-tagged PDZ domains of ParD3 (UniProt Q8TEW0). As to the kind of experiment: pull-down.

No constants are given. Whether binding was seen depends on the method and setting. Binding seen in cells or lysates may run through a third protein. A result given as binding can be weak or reduced; the word gives no strength.

As to “C-terminus of zebrafish Daple (from UniProt A0A2R8QCI3) (domain or fragment)”, the binding result was “binds”.
